Measurements reported in publication PMC5913307.
No constants are given. Whether binding was seen depends on the method and setting. In cells and extracts the contact can be indirect. Here binding means that the protein was enriched with, or labelled near, the bait; the list need not be complete.

By UniProt entry, the sequences of proteins in these tests, tags left out.
UniProt Q92560: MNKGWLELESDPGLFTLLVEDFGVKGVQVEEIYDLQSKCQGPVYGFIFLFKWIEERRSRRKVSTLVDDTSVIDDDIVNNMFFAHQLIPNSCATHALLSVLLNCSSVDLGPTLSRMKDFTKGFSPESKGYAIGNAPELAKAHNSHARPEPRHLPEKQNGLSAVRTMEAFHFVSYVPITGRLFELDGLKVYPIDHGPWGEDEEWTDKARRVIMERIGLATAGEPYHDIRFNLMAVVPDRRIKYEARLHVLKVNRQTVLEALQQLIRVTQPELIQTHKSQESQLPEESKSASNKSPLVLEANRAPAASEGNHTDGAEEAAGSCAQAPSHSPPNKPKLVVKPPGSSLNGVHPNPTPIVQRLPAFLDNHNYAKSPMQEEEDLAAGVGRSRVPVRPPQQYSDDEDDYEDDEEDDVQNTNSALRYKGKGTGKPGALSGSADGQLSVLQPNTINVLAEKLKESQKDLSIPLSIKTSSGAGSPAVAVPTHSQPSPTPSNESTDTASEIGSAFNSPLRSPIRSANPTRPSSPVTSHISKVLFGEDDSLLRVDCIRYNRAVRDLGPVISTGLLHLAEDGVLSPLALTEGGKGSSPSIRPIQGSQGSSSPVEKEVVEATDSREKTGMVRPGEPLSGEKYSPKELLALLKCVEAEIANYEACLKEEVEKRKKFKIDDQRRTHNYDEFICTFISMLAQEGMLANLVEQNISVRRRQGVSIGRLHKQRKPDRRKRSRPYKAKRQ
UniProt P31946: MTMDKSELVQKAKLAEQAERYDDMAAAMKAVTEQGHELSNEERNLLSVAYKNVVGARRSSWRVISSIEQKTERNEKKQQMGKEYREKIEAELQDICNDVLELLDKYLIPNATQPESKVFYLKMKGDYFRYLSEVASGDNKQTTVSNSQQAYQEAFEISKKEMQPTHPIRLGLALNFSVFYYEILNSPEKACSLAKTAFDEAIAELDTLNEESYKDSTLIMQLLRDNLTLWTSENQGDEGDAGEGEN
UniProt P62258: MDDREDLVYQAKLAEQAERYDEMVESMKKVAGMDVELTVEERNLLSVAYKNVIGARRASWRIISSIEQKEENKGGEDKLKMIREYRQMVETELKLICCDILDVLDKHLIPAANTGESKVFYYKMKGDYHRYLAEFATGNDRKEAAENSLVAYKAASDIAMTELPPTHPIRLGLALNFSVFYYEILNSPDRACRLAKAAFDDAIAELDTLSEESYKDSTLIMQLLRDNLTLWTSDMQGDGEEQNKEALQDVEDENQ
UniProt Q13185: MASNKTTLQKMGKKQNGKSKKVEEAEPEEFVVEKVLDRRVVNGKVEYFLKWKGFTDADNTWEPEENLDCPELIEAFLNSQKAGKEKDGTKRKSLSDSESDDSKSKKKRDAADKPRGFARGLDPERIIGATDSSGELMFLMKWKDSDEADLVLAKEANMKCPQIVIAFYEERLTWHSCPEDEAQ
UniProt O00410: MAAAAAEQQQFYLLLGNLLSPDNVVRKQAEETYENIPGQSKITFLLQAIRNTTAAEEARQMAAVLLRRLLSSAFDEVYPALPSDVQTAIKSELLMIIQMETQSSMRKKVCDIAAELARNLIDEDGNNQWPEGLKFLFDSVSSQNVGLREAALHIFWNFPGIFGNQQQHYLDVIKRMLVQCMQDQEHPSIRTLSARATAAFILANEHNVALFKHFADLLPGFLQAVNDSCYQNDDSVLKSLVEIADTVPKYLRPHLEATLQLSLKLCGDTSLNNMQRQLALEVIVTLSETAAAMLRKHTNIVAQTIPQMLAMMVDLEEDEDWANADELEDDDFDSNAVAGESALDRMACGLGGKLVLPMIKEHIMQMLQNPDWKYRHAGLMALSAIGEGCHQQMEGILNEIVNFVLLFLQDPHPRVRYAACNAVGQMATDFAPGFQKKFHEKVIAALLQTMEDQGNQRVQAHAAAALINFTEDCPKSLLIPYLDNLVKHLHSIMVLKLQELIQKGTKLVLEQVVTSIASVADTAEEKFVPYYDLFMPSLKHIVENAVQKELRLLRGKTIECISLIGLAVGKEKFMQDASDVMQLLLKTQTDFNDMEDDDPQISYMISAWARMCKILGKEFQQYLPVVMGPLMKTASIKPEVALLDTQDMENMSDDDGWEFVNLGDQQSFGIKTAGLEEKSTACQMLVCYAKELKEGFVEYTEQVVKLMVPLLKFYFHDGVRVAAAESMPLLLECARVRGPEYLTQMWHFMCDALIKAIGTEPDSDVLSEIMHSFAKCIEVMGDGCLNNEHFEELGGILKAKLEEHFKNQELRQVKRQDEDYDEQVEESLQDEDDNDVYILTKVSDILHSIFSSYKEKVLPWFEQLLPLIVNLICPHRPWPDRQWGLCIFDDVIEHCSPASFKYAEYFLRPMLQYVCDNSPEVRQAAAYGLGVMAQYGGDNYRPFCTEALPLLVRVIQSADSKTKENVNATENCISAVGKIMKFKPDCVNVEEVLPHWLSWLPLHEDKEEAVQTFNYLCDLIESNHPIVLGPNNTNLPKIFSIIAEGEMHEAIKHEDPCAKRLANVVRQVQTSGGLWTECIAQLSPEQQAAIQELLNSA

Target: FLAG-tagged BAP1 (BRCA1-associated protein 1) in SK-N-SH cells (human) (UniProt Q92560)
Experiment: affinity purification with mass spectrometry; immunoprecipitation of FLAG-tagged BAP1 in SK-N-SH cells, in-gel digestion, LC-MS/MS (Orbitrap Fusion)

Row | Substance | binding
1 | 14-3-3-β (endogenous, SK-N-SH) (from UniProt P31946 1-246) | binds
2 | 14-3-3-ε (endogenous, SK-N-SH) (from UniProt P62258 1-255) | binds
3 | CBX3 (from UniProt Q13185 1-183) | binds
4 | IPO5 (from UniProt O00410 1-1097) | binds
